Reference: article doi:10.1101/2021.02.25.432796
Results are given in words; binding and its absence hold for the method and conditions named. In cells and extracts the contact can be indirect. Some results given as binding are weak or reduced against the parent protein; the word gives no strength.

Chains of the proteins cited; added tags and fusions are not shown. Residues count along the entry.
UniProt Q13231, residues 22-466: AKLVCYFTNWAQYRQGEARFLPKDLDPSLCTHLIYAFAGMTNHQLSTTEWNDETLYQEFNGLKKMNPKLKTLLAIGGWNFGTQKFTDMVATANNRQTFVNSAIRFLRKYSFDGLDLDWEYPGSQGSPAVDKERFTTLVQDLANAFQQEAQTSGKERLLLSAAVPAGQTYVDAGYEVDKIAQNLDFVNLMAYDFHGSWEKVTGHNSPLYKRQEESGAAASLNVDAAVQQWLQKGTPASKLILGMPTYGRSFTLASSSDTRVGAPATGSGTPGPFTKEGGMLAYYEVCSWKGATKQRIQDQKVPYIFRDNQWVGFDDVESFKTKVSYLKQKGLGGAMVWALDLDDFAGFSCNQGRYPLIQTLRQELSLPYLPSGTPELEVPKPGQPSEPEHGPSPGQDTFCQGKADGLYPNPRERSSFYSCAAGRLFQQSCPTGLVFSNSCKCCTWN

Target: Chitinase 1 (CHIT1), human (human) (UniProt Q13231)
Test: co-IP

binding: binds
B1: Transforming growth factor beta associated protein 1 (TGFBRAP1) (protein, UniProt Q8WUH2 1-860)
chain: MMSIKAFTLVSAVERELLMGDKERVNIECVECCGRDLYVGTNDCFVYHFLLEERPVPAGPATFTATKQLQRHLGFKKPVNELRAASALNRLLVLCDNSISLVNMLNLEPVPSGARIKGAATFALNENPVSGDPFCVEVCIISVKRRTIQMFLVYEDRVQIVKEVSTAEQPLAVAVDGHFLCLALTTQYIIHNYSTGVSQDLFPYCSEERPPIVKRIGRQEFLLAGPGGLGMFATVAGISQRAPVHWSENVIGAAVSFPYVIALDDEFITVHSMLDQQQKQTLPFKEGHILQDFEGRVIVATSKGVYILVPLPLEKQIQDLLASRRVEEALVLAKGARRNIPKEKFQVMYRRILQQAGFIQFAQLQFLEAKELFRSGQLDVRELISLYPFLLPTSSSFTRSHPPLHEYADLNQLTQGDQEKMAKCKRFLMSYLNEVRSTEVANGYKEDIDTALLKLYAEADHDSLLDLLVTENFCLLTDSAAWLEKHKKYFALGLLYHYNNQDAAAVQLWVNIVNGDVQDSTRSDLYEYIVDFLTYCLDEELVWAYADWVLQKSEEVGVQVFTKRPLDEQQKNSFNPDDIINCLKKYPKALVKYLEHLVIDKRLQKEEYHTHLAVLYLEEVLLQRASASGKGAEATETQAKLRRLLQKSDLYRVHFLLERLQGAGLPMESAILHGKLGEHEKALHILVHELQDFAAAEDYCLWCSEGRDPPHRQQLFHTLLAIYLHAGPTAHELAVAAVDLLNRHATEFDAAQVLQMLPDTWSVQLLCPFLMGAMRDSIHARRTMQVALGLARSENLIYTYDKMKLKGSSIQLSDKKLCQICQNPFCEPVFVRYPNGGLVHTHCAASRHTNPSSSSPGTRT
